Experimental data: article PMC2776992
No constants are given. Whether binding was seen depends on the method and setting. Binding seen in cells or lysates may run through a third protein. A result given as binding can be weak or reduced; the word gives no strength. For some assays here: Where a sequence is shown, tags or fusion partners need not be part of it.

B1: pro-apoptotic protein BADS (BCL2-antagonist of cell death), human (protein, UniProt Q92934 1-168)
chain: MFQIPEFEPSEQEDSSSAERGLGPSPAGDGPSGSGKHHRQAPGLLWDASHQQEQPTSSSHHGGAGAVEIRSRHSSYPAGTEDDEGMGEEPSPFRGRSRSAPPNLWAAQRYGRELRRMSDEFVDSFKKGLPRPKSAGTATQMRQSSSWTRVFQSWWDRNLGRGSSAPSQ
B2: WAVE1 (a protein kinase A scaffold protein), mouse (protein, UniProt Q8R5H6 1-559)
chain: MPLVKRNIDPRHLCHTALPRGIKNELECVTNISLANIIRQLSSLSKYAEDIFGELFNEAHSFSFRVNSLQERVDRLSVSVTQLDPKEEELSLQDITMRKAFRSSTIQDQQLFDRKTLPIPLQETYDVCEQPPPLNILTPYRDDGKEGLKFYTNPSYFFDLWKEKMLQDTEDKRKEKRKQKQKNLDRPHEPEKVPRAPHDRRREWQKLAQGPELAEDDADLLHKHIEVANGPASHYETRPQTYVDHMDGSYSLSALPFSQMSELLTRAEERVLVRPHEPPPPPPMHGAGDAKPTPTCISSATGLIENRPQSPAAGRTPVFVSPTPPPPPPPLPSALSTSSLRASMTSTPPPPVPPPPPPPATALQAPAVPPPPAPLQIAPGVLHPAPPPIAPPLVQPSPPVARAAPVCETVPVHPLPQGEVQGLPPPPPPPPLPPPGIRPSSPVAVAALAHPPSGLHPAPSTAPGPHAPLMPPSPPSQVLPASEPKRHPSTLPVISDARSVLLEAIRKGIQLRKVEEQREQEAKHERIENDVATILSRRIAVEYSDSEDDSEFDEVDWLE

Key:
[1] = target: protein phosphatase 1 (PP1), human (human (endogenous in human islets)); assay: pull-down; microcystin capture assay: mitochondria of human islets (controls and patients with type 2 diabetes) solubilised in 6 mM CHAPS, 150 mM NaCl, 0.01 M sodium phosphate pH 7.2, 2 mM EDTA; incubated with microcystin beads (hold PP1) overnight at 4°C; bound proteins detected by Western …
[2] = target: protein phosphatase 1 (PP1), mouse (mouse (endogenous in mouse β-cell lines and islets)); assay: pull-down; microcystin capture assay: mitochondria of control, βIRKO or βIRKO+hIRB mouse β-cell lines, or of control or βIRKO mouse islets, solubilised in 6 mM CHAPS, 150 mM NaCl, 0.01 M sodium phosphate pH 7.2, 2 mM EDTA; incubated with microcystin beads (hold PP1) overnight at 4°C; bound proteins detected by Western blotting

Binder | binding [1] | binding [2]
B1 | binds | –
B2 | – | binds
